In patent publication US20080221132A1, “Multi-Functional Small Molecules as Anti-Proliferative Agents” (priority 2006, published 2008):

Tests used:
Assay type in all cases: cell-based
Caki-1 (renal carcinoma) = test: Cell proliferation assay (ATPlite), Caki-1; details: Homo sapiens, TABLE D, read-out: IC50 grading, Caki-1
Method: (§1) A representative number of compounds were assayed against several different cell lines using the cell proliferation assay:
(§2) Cell Proliferation Assay:
(§3) Cancer cell lines were plated at 5,000 to 10,000 per well in 96-well flatted bottomed plates with various concentration of compounds. The cells were incubated with compounds for 72 hours in the presence of 0.5% of fetal bovine serum. Growth inhibition was accessed by adenosine triphosphate (ATP) content assay using Perkin Elmer ATPlite kit. ATPlite is an ATP monitoring system based on firefly luciferase. Briefly, 25 μl of mammalian cell lysis solution was added to 50 μl of phenol red-free culture medium per well to lyse the cells and stabilize the ATP. 25 μl of substrate solution was then added to the well and subsequently the luminescence was measured.

[1] = test system: Breast_MDAMB468 (MDA-MB-468, breast adenocarcinoma); test: Cell proliferation assay (ATPlite), MDA-MB-468; details: Homo sapiens, TABLE D, read-out: IC50 grading, MDA-MB-468
Method: as §1, §2, §3

[2] = test system: Prostate_PC3 (PC-3, prostate adenocarcinoma); test: Cell proliferation assay (ATPlite), PC3; details: TABLE D, read-out: IC50 grading, PC-3
Method: as §1, §2, §3

[3] = test system: Breast_SkBr3 (SKBr3, breast carcinoma); test: Cell proliferation assay (ATPlite), SkBr3; details: Homo sapiens, SK-BR-3, TABLE D, read-out: IC50 grading, SKBr3
Method: as §1, §2, §3

[4] = test system: Breast_MCF7 (MCF-7, breast adenocarcinoma); test: Cell proliferation assay (ATPlite), MCF7; details: Homo sapiens, TABLE D, read-out: IC50 grading, MCF-7
Method: as §1, §2, §3

[5] = test system: Colon_HCT116 (HCT116, colon cancer); test: Cell proliferation assay (ATPlite), HCT116; details: Homo sapiens, HCT-116, TABLE D, read-out: IC50 grading, HCT116
Method: as §1, §2, §3

[6] = test system: MDA-MB-231 (breast adenocarcinoma); test: Cell proliferation assay (ATPlite), MDA-MB-231; details: Homo sapiens, TABLE D, read-out: IC50 grading, MDA-MB-231
Method: as §1, §2, §3

[7] = test system: Prostate_22RV1 (22RV1, prostate carcinoma); test: Cell proliferation assay (ATPlite), 22RV1; details: Homo sapiens, TABLE D, read-out: IC50 grading, 22RV1
Method: as §1, §2, §3

[8] = test system: Epidermoid_A431 (A431, epidermoid carcinoma); test: Cell proliferation assay (ATPlite), A431; details: Homo sapiens, A-431, TABLE D, read-out: IC50 grading, A431
Method: as §1, §2, §3

IC50 (Caki-1 (renal carcinoma)): 50 to 500 nM
IC50 [1]: 500 to 5000 nM
IC50 [2]: 500 to 5000 nM
IC50 [3]: 500 to 5000 nM
IC50 [4]: 500 to 5000 nM
IC50 [5]: 500 to 5000 nM
IC50 [6]: 50 to 500 nM
IC50 [7]: 50 to 500 nM
IC50 [8]: 500 to 5000 nM
SMILES: O=C(CCCCCCC(=O)Nc1ccccc1)NO [SAHA, Suberoylanilide hydroxamic acid, reference compound]
